Test results: the supplement of paper PMC10735217
Structures can show the parent of a compound that is named as a salt. The list shows a part of the results. Repeats in this data set agree poorly, so a single value says little.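 Human kidney-derived cells stably carry a construct in which eight TEAD-binding elements drive luciferase, measured by luminescence in a drug-repurposing library screen. A hit is any compound whose signal exceeds the plate mean by more than five robust Z scores.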

Tested on: HEK293A TEAD-LUC reporter
Test: TEAD-luciferase reporter activity (YAP activation), robust Z score vs plate; higher = stronger YAP/TEAD activation
Settings: 24 h

SMILES | TEAD-luciferase reporter activity (compound concentration: 2 uM) | TEAD-luciferase reporter activity (compound concentration: 200 nM) | TEAD-luciferase reporter activity (compound concentration: 10 uM)
O[C@H]1[C@H]2[C@H](O)CCCN2C[C@H]1O [Tridolgosir] | inactive: 3.04 |  | 
O[C@H]1[C@H]2[C@H](O)CCCN2C[C@H]1O |  | active: 5.27 | inactive: 1.29
CCN1C[C@]2(OC(=O)c3ccccc3NC(C)=O)CCC(OC)C34C2CC([C@H]13)[C@@]1(O)CC(OC)C2CC4[C@]1(O)[C@H]2OC (some centres undefined) [Allapininum_:_ Lappaconitine] | inactive: -0.0961 |  | 
CCN1C[C@]2(OC(=O)c3ccccc3NC(C)=O)CCC(OC)C34C2CC([C@H]13)[C@@]1(O)CC(OC)C2CC4[C@]1(O)[C@H]2OC (some centres undefined) [Lappaconitine] |  | inactive: 1.23 | inactive: 4.52
O=C(NCC1CCOCC1)c1cnc(Nc2ccc(Cl)cc2Cl)nc1C(F)(F)F | inactive: -1.64 |  | 
CCS(=O)(=O)n1c2c(c3cc(C(=O)N4CCC(C)CC4)ccc31)CN(C1CCOCC1)CC2 | inactive: 1.02 | inactive: -2.25 | inactive: 0.233
C[C@]12CCC3C4CCC(=O)C=C4CCC3C1CC[C@@H]2O (some centres undefined) | inactive: -0.649 | inactive: 0.213 | inactive: 1.62
CCN1CCCC12Cc1ccccc1CN(C(=O)Cc1ccccc1)C2 (centres undefined) |  | inactive: 1.97 | active: 6.64
CN(c1nc2ccccc2s1)C1CCN(C[C@H](O)COc2ccc(F)c(F)c2)CC1 [Lubeluzole dihydrochloride] | inactive: -0.444 | inactive: -1.03 | inactive: 1.22
COc1ccc(/C=C/C(=O)CC(=O)/C=C/c2ccc(OC)c(OC)c2)cc1OC [Dimethylcurcumin] | inactive: -2.38 | inactive: -0.725 | inactive: -1.44
CC(N)Cc1ccc(O)cc1 (centres undefined) | inactive: 0.224 | inactive: 1.33 | inactive: -0.869
CCOC(=O)C(c1c(O)c2ccccc2oc1=O)c1c(O)c2ccccc2oc1=O | inactive: 0.399 | inactive: -1.2 | inactive: 1.9
CC(C)(N)CNC(=O)C[C@H]1CC[C@]2(CC1)OOC1(O2)C2CC3CC(C2)CC1C3 (some centres undefined) | inactive: -0.263 | inactive: -0.597 | inactive: -0.0828
[2H]c1c([2H])c([2H])c(C([2H])([2H])[2H])c([2H])c1[2H] [Toluene] | inactive: 1.75 |  | inactive: 1.04
COc1cc([C@@H]2c3cc4c(cc3C[C@H]3COC(=O)[C@@H]32)OCO4)cc(OC)c1OC [Deoxypicropodophyllin] | inactive: 3.42 | inactive: 4.31 | inactive: 2.09
C=CCN.ClCC1CO1.O=C(O)O (centres undefined) [sevelamer carbonate] | inactive: -0.00527 | inactive: -0.695 | inactive: 0.485
CC(C)(C)C(=O)N1CCCC1C(=O)N1CCC(N2Cc3ccccc3C2=O)CC1 (centres undefined) |  | inactive: -1.53 | inactive: 1.62
CC(C)(C)c1cc(NC(=O)[C@@H]2CCCCN2C(=O)N2CCS(=O)(=O)CC2)no1 [cannabinoid receptor-2 agonists] | inactive: 0.105 | inactive: 1.79 | inactive: 2.51
COC1CCC(OC(=O)[C@@H]2C[C@@H]3c4cccc5c4c(cn5C(C)C)C[C@H]3N(C)C2)CC1 (some centres undefined) | inactive: -0.945 | inactive: -0.988 | inactive: 0.337
CN(C)C(C)(CO)Cc1ccc(Cl)c(Cl)c1 (centres undefined) | inactive: -0.188 | inactive: 1.25 | inactive: 3.62

Three records picked at random from those above:
SMILES | TEAD-luciferase reporter activity (compound concentration: 2 uM) | TEAD-luciferase reporter activity (compound concentration: 200 nM) | TEAD-luciferase reporter activity (compound concentration: 10 uM)
CC(N)Cc1ccc(O)cc1 (centres undefined) | inactive: 0.224 | inactive: 1.33 | inactive: -0.869
CCN1C[C@]2(OC(=O)c3ccccc3NC(C)=O)CCC(OC)C34C2CC([C@H]13)[C@@]1(O)CC(OC)C2CC4[C@]1(O)[C@H]2OC (some centres undefined) [Allapininum_:_ Lappaconitine] | inactive: -0.0961 |  | 
O=C(NCC1CCOCC1)c1cnc(Nc2ccc(Cl)cc2Cl)nc1C(F)(F)F | inactive: -1.64 |  | 

The list goes on:

SMILES | TEAD-luciferase reporter activity (compound concentration: 2 uM) | TEAD-luciferase reporter activity (compound concentration: 200 nM) | TEAD-luciferase reporter activity (compound concentration: 10 uM)
CCCCCc1cc(O)c2c(c1)OC(C)(C)[C@@H]1CCC(C)=C[C@@H]21 [d9-Tetrahydrocannabinol solution] |  | inactive: -1.11 | inactive: 1.88
C[C@]12N[C@H](Cc3ccccc31)c1ccccc12 [dizocilpine] | inactive: -0.594 | inactive: -2.85 | inactive: -1.52
C=CCN1CC[C@]23c4c5ccc(O)c4O[C@H]2[C@@H](O)C=C[C@H]3[C@H]1C5 [Nalorphine hydrochloride] |  | inactive: -2.07 | inactive: 0.481
NCC(CC(=O)O)c1ccc(Cl)cc1 (racemic) [(+-)-Baclofen] |  | inactive: 0.4 | inactive: -0.51
COc1ccc(CNc2cn[nH]c(=O)c2Cl)cc1OCC(=O)N1CCN(Cc2ccccc2)CC1 | inactive: 0.375 | inactive: -0.952 | inactive: 3.94
CNC(C)CC1CCCCC1 (centres undefined) | inactive: -0.967 | inactive: 0.187 | inactive: 0.329
CCOC(=O)C(c1ccccc1)C1CCCCN1 (centres undefined) [Ethylphenidate] | inactive: -1.64 | inactive: 1.04 | inactive: 0.945
CN1CCC(C(=O)c2cccc(NC(=O)c3c(F)cc(F)cc3F)n2)CC1 [lasmiditan] | inactive: 2.66 | inactive: -1.33 | inactive: -0.356
CC(=O)[C@H]1CC[C@H]2[C@@H]3CC[C@H]4C[C@@H](O)CC[C@]4(C)[C@H]3CC[C@]12C [Sepranolone] | inactive: -0.689 | inactive: -0.381 | inactive: 0.757
O=C1CN2CCOC2(c2ccccc2F)c2cc(Cl)ccc2N1CCO (centres undefined) | inactive: -1.59 | inactive: -0.989 | active: 6.38
O=C1CN=C(c2ccccc2Cl)c2cc([N+](=O)[O-])ccc2N1 [Clonazepam] |  | inactive: -2.44 | inactive: -0.73
O=C1NC2(CCCCC2)C(=O)N1CCN(CCCl)CCCl | inactive: -0.658 | inactive: -1.21 | inactive: -1.32
COc1cc2c(cc1OC)-c1c3c(cc4c1[C@H](C2)N(C)CC4)OCO3 | inactive: -0.37 | inactive: -0.169 | inactive: -0.985
CS(=O)(=O)OCCN(CCCl)c1ccc(C(=O)O)cc1 | inactive: -0.678 | inactive: 0.399 | inactive: -1.82
COc1ccc2c(c1)c(CCN(C)C)cn2S(=O)(=O)c1ccccc1 | inactive: -1.26 | inactive: -1.13 | active: 5.54
C=CCN1C(=O)CN2CCOC2(c2ccccc2F)c2cc(Cl)ccc21 (centres undefined) | inactive: -1.42 | inactive: -0.235 | inactive: 0.559
C[C@@H]1CC[C@H](C(O)C(F)(F)F)N1c1ccc2[nH]c(=O)cc(C(F)(F)F)c2c1 (some centres undefined) | inactive: 0.577 | inactive: -0.724 | inactive: 3.29
Fc1ccc(C2=CCN(CCCCn3cncn3)CC2)cc1 | inactive: -0.543 | inactive: -1.68 | inactive: 2.81
CO[C@@H]1[C@H](OC(=O)NC(=O)CCl)CC[C@]2(CO2)[C@H]1[C@@]1(C)O[C@@H]1CC=C(C)C | inactive: -1.03 | inactive: -1.5 | inactive: 0.773
Cc1cccc(Cc2c[nH]cn2)c1C | inactive: -0.684 |  | 

SMILES | TEAD-luciferase reporter activity (compound concentration: 2 uM) | TEAD-luciferase reporter activity (compound concentration: 200 nM) | TEAD-luciferase reporter activity (compound concentration: 10 uM)
Cc1cccc(Cc2c[nH]cn2)c1C [Detomidine hydrochloride] | inactive: -0.985 |  | 
Cc1cccc(Cc2c[nH]cn2)c1C [Detomidine HCl] |  | inactive: 0.898 | inactive: -0.505
C=CC[C@]1(O)CC[C@H]2[C@@H]3CCC4=CCCC[C@@H]4[C@H]3CC[C@@]21C | inactive: -0.583 | inactive: -1.45 | inactive: 0.808
CN(C(=O)Cc1cccc([N+](=O)[O-])c1)[C@H]1c2ccccc2C[C@@H]1N1CCCC1 [Niravoline] | inactive: -0.761 | inactive: -0.701 | inactive: -1.09
CNC(C)C(O)c1ccccc1 (centres undefined) [ephedrine hydrochloride inj,D] |  | inactive: 0.118 | inactive: -0.641
CNC(C)C(O)c1ccccc1 (centres undefined) [ephedrine hydrochloride inj] | inactive: -0.89 |  | 
O=c1n(Cl)c(=O)n(Cl)c(=O)n1Cl | inactive: 0.0791 | inactive: -1.13 | inactive: 0.714
CC(Cc1ccccc1)NCc1ccccc1Cl (centres undefined) | inactive: 0.726 | inactive: 0.378 | inactive: 3.03
O=[N+]([O-])OCc1cccc(Cl)n1 | inactive: -1.75 | inactive: 0.331 | inactive: 0.113
CN(C)C[C@@H]1CCCC[C@H]1c1cccc(O)c1 | inactive: -0.288 | inactive: -0.444 | inactive: 0.15
CCC1=CC2C(C1)CC2(CN)CC(=O)O (centres undefined) [mirogabalin] | inactive: -0.0727 | inactive: -0.429 | inactive: 1.71
O=C1N=C(NC2CC2)OC1c1ccccc1 (centres undefined) | inactive: -0.0488 | inactive: 0.216 | inactive: -0.175
Cc1ccc(N2CCNCC2)c(S(=O)(=O)O)c1 | inactive: 1.22 | inactive: 0.661 | inactive: -0.558
Clc1ccc2oc(C3CCNCC3)cc2c1 | inactive: -1.22 | active: 5.3 | inactive: -1.44
OC(c1ccc(Cl)cc1)(c1ccc(Cl)cc1)C1CC1 | inactive: -1.42 | inactive: -0.376 | inactive: 3.12
C[C@]12CCC(=O)C=C1[C@@H]1C[C@@H]1[C@@H]1[C@@H]2CC[C@@]2(C)[C@H]1CC[C@@]2(O)CCC(=O)O | inactive: -0.184 | inactive: -0.561 | inactive: 1.14
CN1C2C[C@@H](OC(=O)c3c[nH]c4ccccc34)C[C@@H]1C1OC12 (some centres undefined) | inactive: -0.594 | inactive: -0.411 | inactive: -0.481
O=C1Nc2ccc(Cl)nc2C(c2ccccc2Cl)=NC1O (centres undefined) | inactive: -1.65 | inactive: -0.584 | inactive: -0.91
CN1OC2CCCC(=O)C2C1Cc1ccccc1 (centres undefined) | inactive: -0.496 | inactive: -0.59 | active: 13.3
